PubChem BioAssay AID1159578 – Peter MacCallum Cancer Centre, 2015
Aim: 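siRNA pools altering how lymphatic endothelial cells close a scratch wound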 (primary screen). System: human lymphatic endothelial cells. Reagent: siRNA pool against human genes, 40 nM. Timing: 48 h after transfection. Read-out: 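Cells stained with dye and imaged after a scratch; covered wound area and nuclei counted, duplicates averaged, migration set against mock wells and turned into a robust z-score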. Reading the numbers: migration robust z-score: higher = faster migration into the scratch; migration relative to mock: higher = more scratch area covered than mock; nuclei per well: higher = more cells in the well. Call rule: 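Migration changed when robust z exceeds 2 or falls below -2 and mean nuclei number is at least 3300; otherwise not called changed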. Calls: active = migration changed; inactive = no migration change, or too few cells.
The deposit covers about 18,000 reagents; below is a random part of them. Of all reagents, about 1,030 (5.7%) are marked active. 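Inactive calls also include pools with fewer than 3300 nuclei, whose migration was not assessed.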 The raw values are shown without normalisation.

gene,migration robust z-score,migration class with cell-count check,migration relative to mock,"nuclei per well, duplicate mean",Outcome
FLCN (folliculin),-3.46,migration z below -2; enough cells,-0.02,5315,active
MAGEB1 (MAGE family member B1),-0.24,migration z between -2 and 2; enough cells,0.82,6331,inactive
STYXL1 (serine/threonine/tyrosine interacting like 1),1.06,migration z between -2 and 2; enough cells,1.01,5244,inactive
DACH2 (dachshund family transcription factor 2),-0.15,migration z between -2 and 2; enough cells,0.84,5852,inactive
RNF17 (ring finger protein 17),1.32,migration z between -2 and 2; enough cells,1.06,6962,inactive
"CDC37L1 (cell division cycle 37 like 1, HSP90 cochaperone)",1.1,migration z between -2 and 2; enough cells,1.17,6268,inactive
FGFBP2 (fibroblast growth factor binding protein 2),0.46,migration z between -2 and 2; enough cells,1,5117,inactive
CREB3L2 (cAMP responsive element binding protein 3 like 2),-1.99,migration z between -2 and 2; enough cells,0.37,4708,inactive
DHRS7 (dehydrogenase/reductase 7),-0.76,migration z between -2 and 2; enough cells,0.66,5637,inactive
PRKAG1 (protein kinase AMP-activated non-catalytic subunit gamma 1),0.13,migration z between -2 and 2; enough cells,0.83,4120,inactive
TCF3 (transcription factor 3),0,migration z between -2 and 2; enough cells,0.8,5614,inactive
NFE2L2 (NFE2 like bZIP transcription factor 2),0.9,migration z between -2 and 2; enough cells,0.98,5214,inactive
SLC17A1,0.62,migration z between -2 and 2; enough cells,0.92,5088,inactive
SPC24 (SPC24 component of NDC80 kinetochore complex),0.84,migration z between -2 and 2; enough cells,1.1,5832,inactive
DEFB127 (defensin beta 127),0.25,migration z between -2 and 2; enough cells,0.96,5799,inactive
CDHR1 (cadherin related family member 1),1.68,migration z between -2 and 2; enough cells,1.32,5224,inactive
GUF1 (GTP binding elongation factor GUF1),0.06,migration z between -2 and 2; enough cells,0.9,6194,inactive
NKAIN2 (sodium/potassium transporting ATPase interacting 2),0.84,migration z between -2 and 2; enough cells,1.1,6316,inactive
NR2C2AP (nuclear receptor 2C2 associated protein),-0.62,migration z between -2 and 2; enough cells,0.73,4846,inactive
C5 (complement C5),0.1,migration z between -2 and 2; enough cells,0.91,5690,inactive
MMAB (metabolism of cobalamin associated B),-0.65,migration z between -2 and 2; enough cells,0.68,5866,inactive
PLK4 (polo like kinase 4),-4.8,under 3300 nuclei; migration not judged,-0.12,2278,inactive
EXOC6 (exocyst complex component 6),-1.34,migration z between -2 and 2; enough cells,0.53,6398,inactive
DGLUCY (D-glutamate cyclase),0.09,migration z between -2 and 2; enough cells,0.91,6982,inactive
ZCRB1 (zinc finger CCHC-type and RNA binding motif containing 1),0.97,migration z between -2 and 2; enough cells,1.14,6016,inactive
GPR155 (G protein-coupled receptor 155),-0.1,migration z between -2 and 2; enough cells,0.78,5404,inactive
GPRASP2 (G protein-coupled receptor associated sorting protein 2),1.34,migration z between -2 and 2; enough cells,1.23,6196,inactive
CLSTN2 (calsyntenin 2),-1.19,migration z between -2 and 2; enough cells,0.57,6862,inactive
CFL1 (cofilin 1),-0.96,migration z between -2 and 2; enough cells,0.64,4057,inactive
RPL18P4 (ribosomal protein L18 pseudogene 4),1.04,migration z between -2 and 2; enough cells,1.16,6471,inactive
NXF3 (nuclear RNA export factor 3),0.02,migration z between -2 and 2; enough cells,0.81,4287,inactive
APOL1 (apolipoprotein L1),-0.8,migration z between -2 and 2; enough cells,0.65,4466,inactive
EPHB4 (EPH receptor B4),-1.79,migration z between -2 and 2; enough cells,0.46,5736,inactive
KPNA5 (karyopherin subunit alpha 5),1.49,migration z between -2 and 2; enough cells,1.27,4669,inactive
BNIP2 (BCL2 interacting protein 2),0.08,migration z between -2 and 2; enough cells,0.82,5454,inactive
CHLSN (cholesin),0.32,migration z between -2 and 2; enough cells,0.97,6020,inactive
RNASEH2B (ribonuclease H2 subunit B),-0.24,migration z between -2 and 2; enough cells,0.82,6077,inactive
CERS3 (ceramide synthase 3),-0.11,migration z between -2 and 2; enough cells,0.86,5467,inactive
APBB1 (amyloid beta precursor protein binding family B member 1),-0.66,migration z between -2 and 2; enough cells,0.72,4154,inactive
SPAG9 (sperm associated antigen 9),-1.09,migration z between -2 and 2; enough cells,0.6,5606,inactive
IGFN1,0.66,migration z between -2 and 2; enough cells,1.05,5416,inactive
ACSL6 (acyl-CoA synthetase long chain family member 6),0.42,migration z between -2 and 2; enough cells,0.88,5202,inactive
OR52B4 (olfactory receptor family 52 subfamily B member 4),-0.01,migration z between -2 and 2; enough cells,0.89,6172,inactive
USE1 (unconventional SNARE in the ER 1),-0.46,migration z between -2 and 2; enough cells,0.77,4944,inactive
SLC38A3,-2.02,under 3300 nuclei; migration not judged,0.42,3096,inactive
RASSF1 (Ras association domain family member 1),1.53,migration z between -2 and 2; enough cells,1.28,5240,inactive
STK32C (serine/threonine kinase 32C),-0.36,migration z between -2 and 2; enough cells,0.74,3506,inactive
WNT6 (Wnt family member 6),-1.5,migration z between -2 and 2; enough cells,0.5,5922,inactive
RGL1 (ral guanine nucleotide dissociation stimulator like 1),-0.47,migration z between -2 and 2; enough cells,0.72,5970,inactive
SLC9C2,0.42,migration z between -2 and 2; enough cells,0.88,5029,inactive
MYBL2 (MYB proto-oncogene like 2),2.8,migration z above 2; enough cells,1.34,5980,active
EPSTI1 (epithelial stromal interaction 1),0.6,migration z between -2 and 2; enough cells,1.04,5166,inactive
OR2F1 (olfactory receptor family 2 subfamily F member 1),-2.78,under 3300 nuclei; migration not judged,0.17,2798,inactive
CLTC (clathrin heavy chain),-0.94,migration z between -2 and 2; enough cells,0.64,6046,inactive
SMARCA1 (SNF2 related chromatin remodeling ATPase 1),-0.39,migration z between -2 and 2; enough cells,0.73,5058,inactive
PAPPA (pappalysin 1),0.31,migration z between -2 and 2; enough cells,0.86,5300,inactive
DPP9 (dipeptidyl peptidase 9),-2.13,migration z below -2; enough cells,0.39,3725,active

Active calls, of those listed so far:
gene,migration robust z-score,migration class with cell-count check,migration relative to mock,"nuclei per well, duplicate mean",Outcome
FLCN (folliculin),-3.46,migration z below -2; enough cells,-0.02,5315,active
MYBL2 (MYB proto-oncogene like 2),2.8,migration z above 2; enough cells,1.34,5980,active
DPP9 (dipeptidyl peptidase 9),-2.13,migration z below -2; enough cells,0.39,3725,active
